# Publication PMC12530543
# Chains of the proteins cited; added tags and fusions are not shown.
# UniProt P03407: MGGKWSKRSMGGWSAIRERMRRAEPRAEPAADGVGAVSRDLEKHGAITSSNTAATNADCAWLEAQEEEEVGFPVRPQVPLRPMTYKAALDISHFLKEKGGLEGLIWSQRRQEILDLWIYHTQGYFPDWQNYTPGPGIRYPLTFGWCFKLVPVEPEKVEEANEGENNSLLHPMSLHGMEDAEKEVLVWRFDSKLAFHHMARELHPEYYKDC
# These are yes or no findings as the source states them, for the method shown. Binding seen in cells or lysates may run through a third protein.
# Target: HIV-1 SF2 Nef with an HA-tag (HIV-1 (SF2)) (UniProt P03407)
# Experiment: co-IP; Ser5-FLAG, Nef-HA or glycoGag-HA expressed alone, or Ser5-FLAG with Nef-HA, in HEK293T cells; RIPA lysis; anti-FLAG M2 magnetic beads or anti-HA affinity gel; endogenous RETREG1 detected by WB
substance,measurement,value
"reticulophagy regulator 1 (RETREG1), endogenous (from UniProt Q9H6L5-1 1-497)",binding,no binding
